Data on 3 molecules can be found in publication PMC6362314, “Both a Unique Motif at the C Terminus and an N-Terminal HEAT Repeat Contribute to G-Quadruplex Binding and Origin Regulation by the Rif1 Protein” (Molecular and Cellular Biology, 2018).

For experiment [1], the target named is Rif1 aa 1129 to 1400 mut2 polypeptide (S. pombe) (UniProt Q96UP3). Briefly: SEC; gel filtration of purified aa 1129 to 1400 wild type and mut2; self-association; both purified.
In experiment [2] the target is Rif1 N-terminal polypeptide (aa 1 to 1023) (S. pombe) (UniProt Q96UP3). Briefly: native gel or EMSA; N-terminal polypeptides on a native gel, data not shown; self-association; both purified.
Experiment [3] addresses Rif1 short N-terminal polypeptide (aa 1 to 444) (S. pombe) (UniProt Q96UP3). Described as above.

Results are given in words; binding and its absence hold for the method and conditions named. Some binding calls cover weakened binding; strength is not graded here.

B1: Rif1 aa 1129 to 1400 mut2 polypeptide (domain or fragment, UniProt Q96UP3 1129-1400)
chain: KIDETKNEATDMEESLTTPSGKVNKEVIVDDTSLRDEAIVPDKAIDVADNSNALLKENISSQSNRKADNNGTPSVNNSFTTANNDECSKENSQIEPEGQTASREGVLSTPRSTRKKRKLGRKSQSSNVNKEVAISEVSATLENVEVIERHGISEQGQNLDESACVLTNESSLSQTEIPEEKTENETTAVNGFENSKKRQFSSLLSGSIDTNNESNKVSSVEFDKSGPQDIIQSMTEATFEIEKNIQDLKSEEVQKLSDLLMAAARAAAAAIA
B1: the binding entry in experiment [1] is reported as “binds”.

B2: Rif1 N-terminal polypeptide (aa 1 to 1023) (domain or fragment, UniProt Q96UP3 1-1023)
chain: MTKEIAVKEASNMLLQEPSTPSSQAVGLSSSPSSSIRKKKVNFSSELENSPGGNRPSFGLPKRGILKTSTPLSSIKQPNFQSFEGNESEKETSLQELQSSFCSGIENLQHVEKSARIETYSKLSSFLKIYTPSLPEDPIFPLLNQLCNFLLSDRCSNNSEGSPDFQLNTQANKLLSILLWHPTISSHIQPETATVFIEQSLNFLEGPKLTKALAAQHLHLLSCQKCPLSIHPLCNRILDVCFNISFPSLVIGQERLAVLTKILSQFPLEFSRRVVDWAPYLLACLVDASRPIREKALLLALDLSKHLYHDKLVARTILANFRSDIKGTAFVLIMTEQFEKLVIEEDDGVYVAHAWAAIISVLGGARISSWEYFNTWLKIIQLCFNSMNPLTKCAAQTSWIRLIHEFSLSETLTQATKRLTLLCQPISMVLGSRNLPTVKNAAMTTLIALIYACLRPGISDAMLSLLWDSVIVNILEKCALKNEVTIFESSNILLALFNTLSNGVWKDDRLVCRESVEAKELPKLNPVWVRANCSRTIEPVKTLLLLAKPDHTVKTTTPARKQHIRGLSYEQSSSVWSTYIKCLASAGQKEIKRSVETGRAICCICSSLHKFLYSKSIRKDELYVERVSRFALMVKSAIEAFGINTFVEASYLVSDNQLVLIDQTKAIDSYDHVPISPLIYLLHSLALLTNGTLFSTVHAAYSSILSSIEEYHLRFGLKLMLLWDCVSPLSDDGTLVLARVLVSHEVSRLTSEALLSELKSRNGNNSVEEGFSEEERSILLKLLSWNVKFCSISDAGSVNNLLQQYFTAIYKFEGCGSVFPFVVDPFTTILDDVLSFEANKVYSFAISLMKVSTFESCTKELPPVTLPENIRQHLDSYNHMVELYNTLLQRLSSSDQVDLQCRYLHELSEFIKKIPKEFIFHTICKLSKGLIPCFLMNAFPQLEKSTTLQKSCTNFCILILQLLLNSTATASNILESLSPLLTSGLKSISKEVVLAAIKFWNQVFGKFESEEYPIELQKTISYL
With B2, the binding result in experiment [2] is “binds”.

B3: Rif1 short N-terminal polypeptide (aa 1 to 444) (domain or fragment, UniProt Q96UP3 1-444)
chain: MTKEIAVKEASNMLLQEPSTPSSQAVGLSSSPSSSIRKKKVNFSSELENSPGGNRPSFGLPKRGILKTSTPLSSIKQPNFQSFEGNESEKETSLQELQSSFCSGIENLQHVEKSARIETYSKLSSFLKIYTPSLPEDPIFPLLNQLCNFLLSDRCSNNSEGSPDFQLNTQANKLLSILLWHPTISSHIQPETATVFIEQSLNFLEGPKLTKALAAQHLHLLSCQKCPLSIHPLCNRILDVCFNISFPSLVIGQERLAVLTKILSQFPLEFSRRVVDWAPYLLACLVDASRPIREKALLLALDLSKHLYHDKLVARTILANFRSDIKGTAFVLIMTEQFEKLVIEEDDGVYVAHAWAAIISVLGGARISSWEYFNTWLKIIQLCFNSMNPLTKCAAQTSWIRLIHEFSLSETLTQATKRLTLLCQPISMVLGSRNLPTVKNAAMT
In the case of B3, the binding entry in experiment [3] is “binds”.
